Measured values published in BindingDB's records for doi:10.1074/jbc.M111.290619 (Washington University, 2011).

Protein sequences, listed by entry. Tags and fused reporters are not part of them. Lines headed by an entry give the natural chain unless they say otherwise; changes in a name come on top.
UniProt Q22993: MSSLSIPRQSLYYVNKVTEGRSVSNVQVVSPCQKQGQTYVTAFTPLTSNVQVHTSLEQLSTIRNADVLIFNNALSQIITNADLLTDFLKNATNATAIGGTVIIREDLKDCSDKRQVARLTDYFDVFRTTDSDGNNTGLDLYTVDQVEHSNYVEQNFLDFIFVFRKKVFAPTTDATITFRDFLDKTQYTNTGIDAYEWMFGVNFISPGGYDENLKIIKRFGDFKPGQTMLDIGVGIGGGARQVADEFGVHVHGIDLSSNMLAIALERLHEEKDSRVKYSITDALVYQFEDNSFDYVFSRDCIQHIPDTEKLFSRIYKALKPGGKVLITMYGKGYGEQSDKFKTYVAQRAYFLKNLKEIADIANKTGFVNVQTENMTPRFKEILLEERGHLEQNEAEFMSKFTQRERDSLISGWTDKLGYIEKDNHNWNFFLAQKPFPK

Molecular target: Phosphoethanolamine N-methyltransferase 2 (Caenorhabditis elegans, UniProt Q22993)
Assay: Radiochemical Assay
Details: pH 8; 25 °C
From the text: A radiochemical assay was used to measure enzymatic activity.

Structure (SMILES): CN(C)CCOC(c1ccccc1)c1ccccc1 [Hydramine]
- IC50: 13 mM
